Reference: PubChem BioAssay AID686937 (Drosophila RNAi Screening Center, 2013)
Assay: 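Genes in the fly needed for secretion of protein constitutively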 (primary screen). System: Drosophila S2 cells expressing secreted horseradish peroxidase. Reagent: long dsRNA against Drosophila genes. Timing: about 5.5 days (5 days dsRNA, then 12 h reporter induction). Treatment: reporter expression induced after 5 days of dsRNA, read 12 h later; inducer not stated. Read-out: 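After 5 days of dsRNA and 12 h of reporter induction, medium peroxidase read by chemiluminescence and scored as per-plate z-score; higher values mean more reporter released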. Scale: z-score: higher = more reporter secreted into medium.
The screen tested about 23,000 reagents; below is a random part of those with a known target gene and a result. 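Reduced-secretion tags in replicate 1 do not always agree with the z-scores; no criterion for assigning the tags was given.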 The numbers tell different reagents against one gene apart. A plus sign joins genes that one reagent is predicted to hit. No sequences are given here. Not given: the amount of reagent.

gene	dsRNA no.	z-score, replicate 1	z-score, replicate 2	z-score, replicate 3	z-score, replicate 4	phenotype, replicate 1
Mid1	1	-0.01	-0.42	-0.37	0.41	
Mid1	2	0.32	0.27			
Mid1	3	0.04	-0.03			
Mid1	4	-0.69	-0.19			
Mid1	5	0	0.32			
Gr85a	1	0.14	-0.02			
stai	1	0.21	0.16			
stai	2	0.31	0.49			
CG17224	1	0.38	0.43			
CG13014	1	0.1	0.1			
asRNA:CR30267	1	0.12	-0.48			
Ggamma1	1	0.36	0.44			
CG15435	1	0.71	0.4			
msk	1	-2.37	-2.01			reduced secretion
pie	1	0.22	0.27			
rg	1	0.4	0.6			
rg	2	0.72	0.52			
rg	3	0.28	0.4			
Topors	1	0.53	0.24			
CG34249 (retired record)	1	-0.94	-0.57			
Mvk + CG33672 + spt4	1	-9.37	0.26			reduced secretion
Mvk + CG33672 + spt4	2	0.31	0.07			
AspRS	1	-0.15	-0.13			
128up	1	0.3	0.28			
Arl5	1	0.26	0.21			
THADA	1	0.26	0.38			
CG7173	1	-1.33	-0.37			
CG32263	1	0.41	0.04			
ste24c + CR30461 (retired record)	1	0.45	0.37			
ste24c + CR30461 (retired record)	2	0.25	0.3			
CG31715	1	1.22	-0.38			
CG1801	1	0.38	0.55			
CG33267	1	0.79	0.5			
CG13004	1	0.24	0.3			
Cyt-c1L	1	0.54	0.65			
Cyt-c1L	2	0.33	0.44			
CG33284	1	-1.01	-0.44			

Laid out differently: 5 of the entries above
rg #2
- z-score, replicate 1: 0.72
- z-score, replicate 2: 0.52

rg #3
- z-score, replicate 1: 0.28
- z-score, replicate 2: 0.4

Topors
- z-score, replicate 1: 0.53
- z-score, replicate 2: 0.24

CG34249 (retired record)
- z-score, replicate 1: -0.94
- z-score, replicate 2: -0.57

Mvk + CG33672 + spt4 #1
- z-score, replicate 1: -9.37
- z-score, replicate 2: 0.26
- phenotype, replicate 1: reduced secretion

The listing continues.
gene	dsRNA no.	z-score, replicate 1	z-score, replicate 2	z-score, replicate 3	z-score, replicate 4	phenotype, replicate 1
btsz	1	-0.04	-0.83			
btsz	2	-2.46	-2.2			reduced secretion
btsz	3	-0.26	-0.37			
btsz	4	0.18	0			
Ugt303B3	1	0.44	0.19			
CG9864	1	0.34	0.21			
CG14105	1	0.23	-0.03			
Eaat2	1	0.36	0.18			
Eaat2	2	0.28	0.37			
lncRNA:CR34024	1	0.23	0.52			
Mau2	1	0.48	0.58			
egg	1	0.31	0.11			
egg	2	1.65	1.57			
Or63a	1	0.5	0.39			
Dpm1	1	-0.07	0.15			
CG42516 + Pbp49	1	0.46	0.41			
alrm	1	0	-0.18			
frm	1	0.12	0.43	-0.32	-0.68	
Atg10 + CG12822	1	0.5	0.42			
CG13589	1	0.25	0.49			
CG12241	1	-0.3	-0.09			
Or98a	1	0.27	0.51			
CaBP1	1	0.23	0.19			
CG12995	1	0.28	0.26			
CG31524	1	0.79	0.62			
CG31819	1	0.37	0.47			
Uxt	1	-0.18	-0.09			
NPF	1	0.39	0.45			
CG18417	1	0.24	0.3			
Ctns	1	0.35	0.25			
CG17600	1	0.59	0.3			
CG17600	2	0.27	0.31			
CG17600	3	0.39	0.12			
Ag5r2	1	0.14	-0.23			
Myc	1	-2.33	-3.02			reduced secretion
CR4575	1	0.15	0.61			
BORCS6	1	0.29	0.26			
ppk26	1	0.28	0.09			
tna	1	-0.46	0.23			
tna	2	0.16	-0.41			
gammaTub23C	1	0.1	0.11			
CG42346	1	0.74	0.42			
CG42346	2	0.28	0.44			
Hsc70-3	1	-4.06	-3.58			reduced secretion
scra	1	-0.28	-0.22			
